# Test results: the supplement of paper PMC8728848
# Some of the results follow.
# Assays:
# Experiment in all cases: glycan array binding signal (z-score within array); higher = stronger binding
# Conditions in all cases: glycan notation: IUPAC condensed, linker removed
# [1] = target: Neu5Ac(a2-3)Gal(b1-4)[Fuc(a1-3)]GlcNAc(b1-3)Gal
# Method in brief: (§1)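 Negative Z-scores can be read as non-binding. The Z-score is calculated within each array and then averaged across arrays of one protein sequence at different concentrations or buffers and across linkers. Arrays, 3228 in all, were curated from the Consortium for Functional Glycomics database and kept only where the protein sequence was available.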
# [2] = target: Neu5Ac(a2-3)Gal(b1-4)[Fuc(a1-3)]GlcNAc(b1-3)Gal(b1-4)GlcNAc
# Method in brief: as §1
# [3] = target: Neu5Ac(a2-3)Gal(b1-4)[Fuc(a1-3)]GlcNAc(b1-3)Gal(b1-4)[Fuc(a1-3)]GlcNAc(b1-3)Gal(b1-4)[Fuc(a1-3)]GlcNAc
# Method in brief: as §1
# [4] = target: Neu5Ac(a2-3)Gal(b1-4)[Fuc(a1-3)]GlcNAc(b1-3)GalNAc
# Method in brief: as §1
# [5] = target: Neu5Ac(a2-3)Gal(b1-4)[Fuc(a1-3)]GlcNAc(b1-6)[Gal(b1-3)]GalNAc
# Method in brief: as §1
# [6] = target: Neu5Ac(a2-3)Gal(b1-4)[Fuc(a1-3)]GlcNAc(b1-6)[Neu5Ac(a2-3)Gal(b1-3)]GalNAc
# Method in brief: as §1
# [7] = target: Neu5Ac(a2-3)Gal(b1-4)[Fuc(a1-3)]GlcNAc6S
# Method in brief: as §1
# [8] = target: Neu5Ac(a2-3)Gal6S(b1-4)GlcNAc
# Method in brief: as §1
# [9] = target: Neu5Ac(a2-3)Gal6S(b1-4)[Fuc(a1-3)]GlcNAc
# Method in brief: as §1
# [10] = target: Neu5Ac(a2-3)GalNAc
# Method in brief: as §1
# [11] = target: Neu5Ac(a2-3)GalNAc(b1-4)GlcNAc
# Method in brief: as §1
# [12] = target: Neu5Ac(a2-3)[GalNAc(b1-4)]Gal(b1-4)Glc
# Method in brief: as §1
# [13] = target: Neu5Ac(a2-3)[GalNAc(b1-4)]Gal(b1-4)GlcNAc
# Method in brief: as §1
# [14] = target: Neu5Ac(a2-3)[GalNAc(b1-4)]Gal(b1-4)GlcNAc(b1-3)GalNAc
# Method in brief: as §1
# [15] = target: Neu5Ac(a2-3)[Neu5Ac(a2-6)]GalNAc
# Method in brief: as §1
# [16] = target: Neu5Ac(a2-6)Gal
# Method in brief: as §1
# [17] = target: Neu5Ac(a2-6)Gal(b1-4)Glc
# Method in brief: as §1
# [18] = target: Neu5Ac(a2-6)Gal(b1-4)GlcNAc
# Method in brief: as §1
# [19] = target: Neu5Ac(a2-6)Gal(b1-4)GlcNAc(b1-2)Man(a1-3)Man(b1-4)GlcNAc(b1-4)GlcNAc
# Method in brief: as §1
# [20] = target: Neu5Ac(a2-6)Gal(b1-4)GlcNAc(b1-2)Man(a1-3)[Gal(b1-4)GlcNAc(b1-2)Man(a1-6)]Man(b1-4)GlcNAc(b1-4)GlcNAc
# Method in brief: as §1
# [21] = target: Neu5Ac(a2-6)Gal(b1-4)GlcNAc(b1-2)Man(a1-3)[GlcNAc(b1-2)Man(a1-6)]Man(b1-4)GlcNAc(b1-4)GlcNAc
# Method in brief: as §1
# [22] = target: Neu5Ac(a2-6)Gal(b1-4)GlcNAc(b1-2)Man(a1-3)[GlcNAc(b1-2)Man(b1-4)GlcNAc(b1-2)Man(a1-6)]Man(b1-4)GlcNAc(b1-4)GlcNAc
# Method in brief: as §1
# [23] = target: Neu5Ac(a2-6)Gal(b1-4)GlcNAc(b1-2)Man(a1-3)[Man(a1-6)]Man(b1-4)GlcNAc(b1-4)GlcNAc
# Method in brief: as §1
# [24] = target: Neu5Ac(a2-6)Gal(b1-4)GlcNAc(b1-2)Man(a1-3)[Neu5Ac(a2-6)Gal(b1-4)GlcNAc(b1-2)Man(a1-6)]Man(b1-4)GlcNAc(b1-4)GlcNAc
# Method in brief: as §1
# [25] = target: Neu5Ac(a2-6)Gal(b1-4)GlcNAc(b1-2)Man(a1-6)Man(b1-4)GlcNAc(b1-4)GlcNAc
# Method in brief: as §1
# [26] = target: Neu5Ac(a2-6)Gal(b1-4)GlcNAc(b1-2)Man(a1-6)[Gal(b1-4)GlcNAc(b1-2)Man(a1-3)]Man(b1-4)GlcNAc(b1-4)GlcNAc
# Method in brief: as §1
# [27] = target: Neu5Ac(a2-6)Gal(b1-4)GlcNAc(b1-2)Man(a1-6)[GlcNAc(b1-2)Man(a1-3)]Man(b1-4)GlcNAc(b1-4)GlcNAc
# Method in brief: as §1
# [28] = target: Neu5Ac(a2-6)Gal(b1-4)GlcNAc(b1-2)Man(a1-6)[Man(a1-3)]Man(b1-4)GlcNAc(b1-4)GlcNAc
# Method in brief: as §1
# [29] = target: Neu5Ac(a2-6)Gal(b1-4)GlcNAc(b1-3)Gal(b1-3)GlcNAc
# Method in brief: as §1
# [30] = target: Neu5Ac(a2-6)Gal(b1-4)GlcNAc(b1-3)Gal(b1-4)GlcNAc
# Method in brief: as §1
# [31] = target: Neu5Ac(a2-6)Gal(b1-4)GlcNAc(b1-3)Gal(b1-4)GlcNAc(b1-3)Gal(b1-4)GlcNAc
# Method in brief: as §1
# [32] = target: Neu5Ac(a2-6)Gal(b1-4)GlcNAc(b1-3)Gal(b1-4)[Fuc(a1-3)]GlcNAc(b1-3)Gal(b1-4)[Fuc(a1-3)]GlcNAc
# Method in brief: as §1
# [33] = target: Neu5Ac(a2-6)Gal(b1-4)GlcNAc(b1-3)GalNAc
# Method in brief: as §1
# [34] = target: Neu5Ac(a2-6)Gal(b1-4)GlcNAc6S
# Method in brief: as §1
# [35] = target: Neu5Ac(a2-6)GalNAc
# Method in brief: as §1
# [36] = target: Neu5Ac(a2-6)GalNAc(b1-4)GlcNAc
# Method in brief: as §1
# [37] = target: Neu5Ac(a2-6)GlcNAc(b1-4)GlcNAc
# Method in brief: as §1
# [38] = target: Neu5Ac(a2-6)GlcNAc(b1-4)GlcNAc(b1-4)GlcNAc
# Method in brief: as §1
binder,measurement,setting,value
"AcfC (Vibrio cholerae), Q57410 (protein) MKSKNRFLLISLLSFSTSVFADVNLYGPGGPHVPLIKVAESFEKSQSKRVNITFGPQATWNDKAKKNADILFGASEHSALAIAEGHSERFSKFNIHPVFMREAIILVKKGNPKNIKGMADLLKPGIGIVVNDGAGVSNTSGTAVWEDSVGRMKNVEKLQAFRSNIHVFAPNSGSARKAFVDGEDIDAWITWVDWAIANPTIGDMVRMEDEYRIYRDFNVVLAKNPSSEAIDFFDYLTKSKDAEAIFQHYGWFK",glycan array binding signal (z-score),[1],-1.14
same,glycan array binding signal (z-score),[2],-0.127
same,glycan array binding signal (z-score),[3],-0.219
same,glycan array binding signal (z-score),[4],6.97
same,glycan array binding signal (z-score),[5],-0.267
same,glycan array binding signal (z-score),[6],-0.381
same,glycan array binding signal (z-score),[7],-1.09
same,glycan array binding signal (z-score),[8],0.355
same,glycan array binding signal (z-score),[9],-0.261
same,glycan array binding signal (z-score),[10],-3.15
same,glycan array binding signal (z-score),[11],-1.23
same,glycan array binding signal (z-score),[12],-1.07
same,glycan array binding signal (z-score),[13],-0.717
same,glycan array binding signal (z-score),[14],0.126
same,glycan array binding signal (z-score),[15],-0.27
same,glycan array binding signal (z-score),[16],2.2
same,glycan array binding signal (z-score),[17],0.883
same,glycan array binding signal (z-score),[18],0.03
same,glycan array binding signal (z-score),[19],-1.47
same,glycan array binding signal (z-score),[20],1.8
same,glycan array binding signal (z-score),[21],-0.405
same,glycan array binding signal (z-score),[22],-0.611
same,glycan array binding signal (z-score),[23],-0.009
same,glycan array binding signal (z-score),[24],0.559
same,glycan array binding signal (z-score),[25],0.114
same,glycan array binding signal (z-score),[26],-0.314
same,glycan array binding signal (z-score),[27],-1.18
same,glycan array binding signal (z-score),[28],-0.567
same,glycan array binding signal (z-score),[29],-0.356
same,glycan array binding signal (z-score),[30],-0.343
same,glycan array binding signal (z-score),[31],-0.301
same,glycan array binding signal (z-score),[32],0.447
same,glycan array binding signal (z-score),[33],-0.94
same,glycan array binding signal (z-score),[34],0.136
same,glycan array binding signal (z-score),[35],-1.62
same,glycan array binding signal (z-score),[36],-0.666
same,glycan array binding signal (z-score),[37],-0.781
same,glycan array binding signal (z-score),[38],0.443

# 2 entries drawn at random from the list so far:
binder,measurement,setting,value
"AcfC (Vibrio cholerae), Q57410 (protein) MKSKNRFLLISLLSFSTSVFADVNLYGPGGPHVPLIKVAESFEKSQSKRVNITFGPQATWNDKAKKNADILFGASEHSALAIAEGHSERFSKFNIHPVFMREAIILVKKGNPKNIKGMADLLKPGIGIVVNDGAGVSNTSGTAVWEDSVGRMKNVEKLQAFRSNIHVFAPNSGSARKAFVDGEDIDAWITWVDWAIANPTIGDMVRMEDEYRIYRDFNVVLAKNPSSEAIDFFDYLTKSKDAEAIFQHYGWFK",glycan array binding signal (z-score),[15],-0.27
same,glycan array binding signal (z-score),[11],-1.23
